Measurements published in patent US12365732.
Results are given in words; binding and its absence hold for the method and conditions named. Some binding calls cover weakened binding; strength is not graded here.

T1: hu-CD226 on Expi293 cells (human) (UniProt Q15762)
T1 sequence: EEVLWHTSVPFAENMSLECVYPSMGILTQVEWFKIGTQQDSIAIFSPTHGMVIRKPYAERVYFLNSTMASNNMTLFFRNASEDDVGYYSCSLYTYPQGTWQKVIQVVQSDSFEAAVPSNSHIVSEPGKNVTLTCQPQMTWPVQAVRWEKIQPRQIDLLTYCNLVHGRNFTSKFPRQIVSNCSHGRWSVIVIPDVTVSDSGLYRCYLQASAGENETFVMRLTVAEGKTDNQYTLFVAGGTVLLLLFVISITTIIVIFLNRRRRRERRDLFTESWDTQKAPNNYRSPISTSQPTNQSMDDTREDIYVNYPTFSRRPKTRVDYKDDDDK

T2: hu-CD96 isoform 2 on CHO cells (human) (UniProt P40200)
T2 sequence: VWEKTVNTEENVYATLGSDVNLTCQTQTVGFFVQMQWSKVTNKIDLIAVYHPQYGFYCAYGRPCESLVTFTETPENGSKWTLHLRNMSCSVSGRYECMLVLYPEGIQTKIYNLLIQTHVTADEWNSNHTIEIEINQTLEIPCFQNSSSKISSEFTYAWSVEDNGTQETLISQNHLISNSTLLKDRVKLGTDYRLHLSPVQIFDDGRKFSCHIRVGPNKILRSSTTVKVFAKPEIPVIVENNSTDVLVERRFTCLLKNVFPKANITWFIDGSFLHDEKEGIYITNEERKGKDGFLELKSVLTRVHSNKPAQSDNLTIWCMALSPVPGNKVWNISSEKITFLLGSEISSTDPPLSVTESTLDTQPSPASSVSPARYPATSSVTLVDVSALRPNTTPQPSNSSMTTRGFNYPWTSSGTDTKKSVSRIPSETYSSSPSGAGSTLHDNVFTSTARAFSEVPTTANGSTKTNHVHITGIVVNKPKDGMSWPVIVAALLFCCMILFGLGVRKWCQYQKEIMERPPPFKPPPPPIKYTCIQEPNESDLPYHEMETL

T3: hu-CD96 isoform 1 on HEK293T cells (human) (UniProt P40200)
T3 sequence: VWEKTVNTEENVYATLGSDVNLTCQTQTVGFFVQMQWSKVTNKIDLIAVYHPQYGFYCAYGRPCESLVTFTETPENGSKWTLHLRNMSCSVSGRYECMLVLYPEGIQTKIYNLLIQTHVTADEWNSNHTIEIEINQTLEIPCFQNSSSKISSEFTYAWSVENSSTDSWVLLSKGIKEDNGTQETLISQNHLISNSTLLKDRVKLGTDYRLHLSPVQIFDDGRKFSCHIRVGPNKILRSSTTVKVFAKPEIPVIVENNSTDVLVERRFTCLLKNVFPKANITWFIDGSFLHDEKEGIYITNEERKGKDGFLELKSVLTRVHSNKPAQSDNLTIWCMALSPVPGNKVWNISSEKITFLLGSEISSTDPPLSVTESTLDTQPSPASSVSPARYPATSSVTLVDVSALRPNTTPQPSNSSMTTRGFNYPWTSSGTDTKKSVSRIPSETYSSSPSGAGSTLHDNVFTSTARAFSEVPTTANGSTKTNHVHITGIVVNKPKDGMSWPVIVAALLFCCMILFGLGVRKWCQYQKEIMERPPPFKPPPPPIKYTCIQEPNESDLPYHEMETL

T4: hu-CD96 (soluble, isoform 2 extracellular domain) (human) (UniProt P40200)
T4 sequence (chain, biotinylated in Octet and blocking ELISA): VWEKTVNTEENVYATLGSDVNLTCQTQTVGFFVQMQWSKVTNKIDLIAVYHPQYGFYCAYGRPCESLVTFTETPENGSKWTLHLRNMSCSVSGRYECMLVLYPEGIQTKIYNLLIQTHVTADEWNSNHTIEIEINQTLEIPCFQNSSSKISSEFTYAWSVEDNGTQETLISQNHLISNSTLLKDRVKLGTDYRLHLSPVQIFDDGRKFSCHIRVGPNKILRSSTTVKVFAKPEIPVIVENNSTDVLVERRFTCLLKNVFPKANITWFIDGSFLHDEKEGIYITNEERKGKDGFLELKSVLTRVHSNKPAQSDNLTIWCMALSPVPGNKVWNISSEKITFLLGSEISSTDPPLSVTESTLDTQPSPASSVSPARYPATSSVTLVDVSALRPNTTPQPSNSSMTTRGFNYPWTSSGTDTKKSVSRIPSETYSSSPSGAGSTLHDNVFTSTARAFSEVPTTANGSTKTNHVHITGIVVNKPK

T5: cy-CD96 (soluble, extracellular domain) (cynomolgus monkey)
T5 sequence (chain, biotinylated in Octet and blocking ELISA): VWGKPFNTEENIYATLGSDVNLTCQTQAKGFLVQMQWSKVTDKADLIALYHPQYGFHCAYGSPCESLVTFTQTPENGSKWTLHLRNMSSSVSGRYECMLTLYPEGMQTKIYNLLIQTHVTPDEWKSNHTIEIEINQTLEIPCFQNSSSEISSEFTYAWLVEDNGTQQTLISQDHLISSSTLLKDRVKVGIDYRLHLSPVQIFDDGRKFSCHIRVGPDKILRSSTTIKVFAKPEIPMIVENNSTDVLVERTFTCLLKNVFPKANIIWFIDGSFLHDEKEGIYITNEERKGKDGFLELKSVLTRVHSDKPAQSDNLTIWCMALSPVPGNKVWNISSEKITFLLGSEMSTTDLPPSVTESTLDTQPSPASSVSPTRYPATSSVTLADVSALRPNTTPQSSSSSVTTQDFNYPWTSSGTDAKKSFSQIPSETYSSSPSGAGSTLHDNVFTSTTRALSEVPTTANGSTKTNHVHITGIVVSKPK

B1: 10G1 (clone 10G1.3G8), purified hybridoma antibody (antibody, V domains shown)
VH: QIQLVQSGPELKKPGETVKISCKASGYPFTTYGMSWVKQAPGKGLKWMGWINTDSGVPTYADDFKGRFAFSLETSANTAYLQINSLKNEDAATYFCARNIYYGWGNFDYWGQGTILTVSS
VL: DILMTQSPTTLSVTPGETVSLSCRASQDIYRNLHWYQQKSQGTPRLLIKHASDSISGIPSRFTGSGSGTDFTLSINSVKPEDEGIYYCLQGYSMPYTFGGGTKLEIK
B2: mAb1.v7.NGS8 Fab (Fab, V domains shown)
VH: EVQLVQSGAEVKKPGASVKVSCKASGFTFTNNFMHWVRQAPGQGLEWIGMIHANSGITNINEKFKNRVTMTTDTSTSTAYMELRSLRSEDTAVYYCRSDGIYEGYFDYWGQGTLVTVSS
VL: DIQLTQSPSSLSASVGDRVTITCKASQNVGTAIVWYQQKPGKAPKVLIYSASTRYTGVPSRFSGSGSGTDFTLTISSLQPEDFATYYCQQYSSSPLTFGQGTKVEIK
B3: mAb1.v7.NGS9 Fab (Fab, V domains shown)
VH: EVQLVQSGAEVKKPGASVKVSCKASGFTFTNNFMHWVRQAPGQGLEWIGMIHANSGITNINEKFKNRVTMTTDTSTSTAYMELRSLRSEDTAVYYCRSDGVYEGYFDYWGQGTLVTVSS
VL: DIQLTQSPSSLSASVGDRVTITCKASQNVGTAIVWYQQKPGKAPKVLIYSASTRYTGVPSRFSGSGSGTDFTLTISSLQPEDFATYYCQQYSSSPLTFGQGTKVEIK

Columns and labels:
[1] = biological target: T1, hu-CD226 on Expi293 cells (human); assay: flow cytometry on huCD226-transfected Expi293 cells, PE-labelled secondary antibody, fold change in huCD226 binding
[2] = biological target: T2, hu-CD96 isoform 2 on CHO cells (human); assay: FACS
[3] = biological target: T3, hu-CD96 isoform 1 on HEK293T cells (human); assay: FACS
[4] = biological target: T4, hu-CD96 (soluble, isoform 2 extracellular domain) (human); assay: BLI (Octet)
[5] = biological target: T5, cy-CD96 (soluble, extracellular domain) (cynomolgus monkey); assay: BLI (Octet)

| Binder | binding [1] | binding [2] | binding [3] | binding [4] | binding [5] |
| --- | --- | --- | --- | --- | --- |
| B1 | binds | binds | binds | – | – |
| B2 | – | – | – | binds | – |
| B3 | – | – | – | binds | binds |
